Measurements as given in PubChem BioAssay (Tox21).
Inconclusive results, whose numbers are uncertain, are shown with a selection of clear calls. For some of these results: Where the call is inconclusive, the potency comes from a doubtful curve fit. Calls of active or inactive are those of the source. Unless noted, calls follow the shape of the full dose curve.

Protein sequences, listed by entry. Tags and fused reporters are not part of them. Lines headed by an entry give the natural chain unless they say otherwise; changes in a name come on top.
UniProt P14416, whole entry, looked up: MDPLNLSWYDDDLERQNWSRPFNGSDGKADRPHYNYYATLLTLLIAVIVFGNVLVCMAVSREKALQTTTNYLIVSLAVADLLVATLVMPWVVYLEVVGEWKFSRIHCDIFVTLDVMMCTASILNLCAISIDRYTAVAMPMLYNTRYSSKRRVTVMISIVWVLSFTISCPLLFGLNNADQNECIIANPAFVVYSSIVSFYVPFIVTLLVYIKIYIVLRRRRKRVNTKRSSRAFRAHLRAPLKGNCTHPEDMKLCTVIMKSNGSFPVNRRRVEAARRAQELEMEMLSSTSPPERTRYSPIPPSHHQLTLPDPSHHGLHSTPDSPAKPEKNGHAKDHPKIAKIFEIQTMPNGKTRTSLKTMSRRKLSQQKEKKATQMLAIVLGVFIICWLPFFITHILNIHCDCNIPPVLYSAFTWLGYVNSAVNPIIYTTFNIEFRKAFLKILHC
UniProt P28223, whole entry, looked up: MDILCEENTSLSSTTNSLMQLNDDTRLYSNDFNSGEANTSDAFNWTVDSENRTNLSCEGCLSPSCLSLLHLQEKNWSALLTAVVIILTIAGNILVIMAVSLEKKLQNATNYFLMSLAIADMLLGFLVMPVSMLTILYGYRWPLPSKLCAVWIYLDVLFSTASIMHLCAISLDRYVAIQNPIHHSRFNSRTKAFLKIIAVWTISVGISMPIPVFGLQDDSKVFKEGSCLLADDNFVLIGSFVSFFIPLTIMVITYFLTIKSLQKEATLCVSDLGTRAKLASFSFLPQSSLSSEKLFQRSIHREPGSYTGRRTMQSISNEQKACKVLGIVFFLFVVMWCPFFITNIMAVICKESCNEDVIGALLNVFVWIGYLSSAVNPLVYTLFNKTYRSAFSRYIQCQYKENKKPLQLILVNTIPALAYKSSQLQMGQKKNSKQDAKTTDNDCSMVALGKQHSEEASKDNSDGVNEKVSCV
UniProt P11229: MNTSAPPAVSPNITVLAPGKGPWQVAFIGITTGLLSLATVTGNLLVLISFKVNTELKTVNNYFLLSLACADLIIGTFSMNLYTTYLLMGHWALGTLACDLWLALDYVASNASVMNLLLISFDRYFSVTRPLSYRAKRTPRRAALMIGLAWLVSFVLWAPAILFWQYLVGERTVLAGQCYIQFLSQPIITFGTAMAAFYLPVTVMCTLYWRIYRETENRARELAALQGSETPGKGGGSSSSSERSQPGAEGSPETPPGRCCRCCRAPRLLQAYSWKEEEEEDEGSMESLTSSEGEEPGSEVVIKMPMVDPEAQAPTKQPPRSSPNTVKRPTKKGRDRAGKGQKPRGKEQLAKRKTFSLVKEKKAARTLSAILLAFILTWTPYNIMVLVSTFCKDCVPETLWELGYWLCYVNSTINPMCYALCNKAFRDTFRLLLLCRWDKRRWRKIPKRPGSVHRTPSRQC

Experiments:
[1] = p53 small molecule agonists, cell-based qHTS assay with human liver microsomes: qHTS cell viability counter screen (AID 1963579); also: nearly all actives have a fitted effect of over 45% in size; also: potency is read from the fitted curve at half-maximal effect
Summary of the method: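 Cells carrying the p53 response-element beta-lactamase reporter are treated for 16 h at 37 C with test compounds in the presence of human liver microsomes and NADPH (both 0.5 mg/mL final); ATP-based CellTiter-Glo luminescence then reports viability.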

[2] = cAMP Responsive Elements (CRE) small molecule agonists, cell-based qHTS assay (AID 1963590); conditions: CRE-bla HEK293T, beta-lactamase FRET ratio, 3 h; activation: at 92.4 µM (top of the series) unless noted; also: potency is read from the fitted curve at half-maximal effect
Summary of the method: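 Test agents in DMSO were incubated 3 h at 37 C/5% CO2 with CRE-bla HEK 293T cells seeded 18 h earlier; LiveBLAzer B/G FRET substrate was added and read after 2 h at room temperature.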

[3] = biological target: Beta-2 adrenergic receptor (Homo sapiens) (UniProt P07550); assay: Adrenergic beta2 receptor (ADRB2) small molecule agonists, cell-based qHTS assay (AID 1963593); conditions: CHO-ADRB2 cells, cAMP HTRF, 30 min; activation: at 92.4 µM (top of the series) unless noted; also: potency is read from the fitted curve at half-maximal effect;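 as to activation: CHO cells stably overexpressing human ADRB2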
Summary of the method: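 CHO cells stably over-expressing ADRB2 were plated overnight at 37C, then dosed with compounds plus a stimulation mix containing 100uM IBMX and 25uM Ro-20-1724 for 0.5hr at room temperature. cAMP was measured by HTRF competition, 1hr.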

[4] = cAMP Responsive Elements (CRE) small molecule antagonists, cell-based qHTS assay (AID 1963591; active = well fitted inhibition curve with a large enough effect in the signal ratio in the repeat runs, not every such curve was filed as active; inconclusive = weak or mixed curves, or effect the other way; the % refers to the signal ratio; also: potency is read from the fitted curve at half-maximal effect); conditions: CRE-bla HEK293T, beta-lactamase FRET ratio; activity change, negative = inhibition: at 92.4 µM (top of the series) unless noted
Summary of the method: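 Reporter line CRE-bla HEK 293T in dialyzed-FBS DMEM; cells preincubated 18 h, treated 3 h with compound plus NKH477 (0.25 uM final); LiveBLAzer FRET, 2 h RT.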

[5] = biological target: D(2) dopamine receptor (Homo sapiens) (UniProt P14416); assay: Dopamine D2 receptor (DRD2) small molecule antagonists, cell-based qHTS assay (AID 1963595; active = well fitted inhibition curve with a large enough effect in the signal ratio in the repeat runs, with a control signal flat; inconclusive = weak or mixed curves, or effect the other way; the % refers to the signal ratio); conditions: HEK293-DRD2 cAMP HTRF antagonist mode; activity change, negative = inhibition: at 92.4 µM (top of the series) unless noted
Summary of the method: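 HEK293 cells stably expressing DRD2 were preincubated with 0.1 mM Ro20-1724, then with compound for 10 min at room temperature. Cells were stimulated with 200 nM NKH477 plus 12 nM quinpirole for 30 min, and cAMP was read by HTRF.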

[6] = biological target: 5-hydroxytryptamine receptor 2A (Homo sapiens) (UniProt P28223); assay: 5-hydroxytryptamine receptor 2A (HTR2A) small molecule antagonists, cell-based qHTS assay (AID 1963586); also: nearly all actives have a fitted effect of over 45% in size; also: potency is read from the fitted curve at half-maximal effect
Summary of the method: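 CHO cells stably expressing human HTR2A were plated for 18 h at 37 C, then loaded with calcium dye for 1 h. Compounds were preincubated 5 min at room temperature before DOI (4 nM solution) was added. Kinetic fluorescence was read for 3 min.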

[7] = biological target: Muscarinic acetylcholine receptor M1 (Homo sapiens) (UniProt P11229); assay: Cholinergic receptor muscarinic 1 (CHRM1) small molecule antagonists, cell-based qHTS assay (AID 1963588); also: nearly all actives have a fitted effect of over 40% in size
Summary of the method: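 Compounds were tested at 15 concentrations in three independent runs. Dye-loaded CHRM1-CHO cells were exposed 5 min at room temperature before stimulation by acetylcholine added at 50nM. Intracellular calcium was read kinetically on FDSS for 3 min.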

[8] = biological target: D(2) dopamine receptor (Homo sapiens) (UniProt P14416); assay: Dopamine D2 receptor (DRD2) small molecule agonists, cell-based qHTS assay (AID 1963594); conditions: HEK293-DRD2 cAMP HTRF, agonist mode, 30 min; activation: at 92.4 µM (top of the series) unless noted; also: nearly all actives have a fitted effect of over 35% in size
Summary of the method: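 HEK293 cells stably expressing DRD2 were cultured 24 h at 37 C, then given Ro20-1724 (0.1 mM final) and compounds for 10 min at room temperature. NKH477 (200nM) was then added for 30 min. cAMP was read by HTRF.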

[9] = biological target: Muscarinic acetylcholine receptor M1 (Homo sapiens) (UniProt P11229); assay: Cholinergic receptor muscarinic 1 (CHRM1) small molecule agonists, cell-based qHTS assay (AID 1963589); also: nearly all actives have a fitted effect of over 35% in size
Summary of the method: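 Kinetic fluorescence (1 s intervals) of calcium-sensitive dye in human M1 CHO cells after compound addition; cells pre-incubated 18 h at 37 C/5% CO2 and dye-loaded 1 h.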
% is scaled to controls: 0 for no effect and ±100 for the full control effect.

## CCOC(=O)CC#N
[1]
  Potency: inactive
[2]
  Potency: inconclusive: 27 µM [rising, partial curve, poor fit]
[3]
  activation: inconclusive: -0.419%

## O=c1c(O)c(-c2ccc(O)cc2O)oc2cc(O)cc(O)c12
[1]
  Potency: inconclusive: 0.43 µM [cytotoxic, single point]
[2]
  Potency: inconclusive: 64.5 µM [rising, single point]
[4]
  activity change, negative = inhibition: inconclusive: -49.4%
[3]
  Potency: inactive
[5]
  activity change, negative = inhibition: inconclusive: -0.63%

## CN(C)CCN(Cc1ccc(Cl)cc1)c1ccccn1
[1]
  Potency: inconclusive: 3.16 µM [rising, full curve, poor fit]
[6]
  Potency: active: 8.18 µM
[3]
  activation: inconclusive: 7.66% [at 42.5 µM]

## C[C@]1(Cn2ccnn2)[C@H](C(=O)O)N2C(=O)C[C@H]2S1(=O)=O
[1]
  Potency: inconclusive: 0.0707 µM [rising, single point]
[2]
  Potency: inactive
[4]
  Potency: active: 1.88 µM
[3]
  Potency: inactive

## CC(C)(C)C1CCC(=O)CC1
[1]
  Potency: inconclusive: 28.9 µM [cytotoxic, partial curve, poor fit]
[6]
  Potency: inactive
[3]
  Potency: inconclusive: 6.11 µM [inhibitor, single point]

## CCOC(=O)COc1cc(-n2ncc(C(F)(F)F)c(C)c2=O)c(F)cc1Cl
[1]
  Potency: inactive
[7]
  Potency: inactive
[2]
  Potency: inconclusive: 61.1 µM [fluorescent]
[4]
  Potency: inconclusive: 48.6 µM [fluorescent]
[8]
  Potency: inactive

## O=C(CCCCCCCCC#CI)Oc1ccccc1
[1]
  Potency: inconclusive: 0.199 µM [cytotoxic, single point]
[9]
  Potency: inactive
[2]
  Potency: inconclusive: 23.7 µM [rising, partial curve]
[4]
  Potency: inactive
[3]
  Potency: inactive
